Data taken from the supplement of paper PMC12819154, “High-throughput peptide-centric local stability assay extends protein–ligand identification to membrane proteins, tissues and bacteria” (Nature Structural & Molecular Biology, 2025).
This is one part of the list. Most values lie at the level of the controls, where differences are scatter.

Protein sequences, listed by entry. Tags and fused reporters are not part of them. Lines headed by an entry give the natural chain unless they say otherwise; changes in a name come on top.
UniProt Q9H832: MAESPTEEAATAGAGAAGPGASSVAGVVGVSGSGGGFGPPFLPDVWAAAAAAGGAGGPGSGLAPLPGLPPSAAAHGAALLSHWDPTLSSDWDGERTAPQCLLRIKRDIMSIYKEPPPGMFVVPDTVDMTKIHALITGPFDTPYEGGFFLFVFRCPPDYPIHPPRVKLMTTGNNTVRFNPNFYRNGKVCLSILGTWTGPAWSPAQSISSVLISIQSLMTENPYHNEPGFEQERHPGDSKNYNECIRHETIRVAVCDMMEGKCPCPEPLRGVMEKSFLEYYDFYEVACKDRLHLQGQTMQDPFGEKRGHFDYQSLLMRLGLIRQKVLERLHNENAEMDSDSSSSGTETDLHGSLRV
UniProt Q9HA92: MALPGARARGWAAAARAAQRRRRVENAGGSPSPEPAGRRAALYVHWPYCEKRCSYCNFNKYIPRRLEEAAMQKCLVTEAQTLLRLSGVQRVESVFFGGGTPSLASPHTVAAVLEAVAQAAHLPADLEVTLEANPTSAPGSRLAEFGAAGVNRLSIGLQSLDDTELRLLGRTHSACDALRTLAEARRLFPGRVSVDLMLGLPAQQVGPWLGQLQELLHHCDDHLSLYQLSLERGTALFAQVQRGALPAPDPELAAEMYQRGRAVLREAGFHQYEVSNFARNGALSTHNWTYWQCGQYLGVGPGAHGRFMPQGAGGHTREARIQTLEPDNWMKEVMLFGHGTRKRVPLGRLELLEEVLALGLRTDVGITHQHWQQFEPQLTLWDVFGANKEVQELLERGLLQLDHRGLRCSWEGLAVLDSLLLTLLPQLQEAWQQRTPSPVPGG
UniProt Q9H4B6: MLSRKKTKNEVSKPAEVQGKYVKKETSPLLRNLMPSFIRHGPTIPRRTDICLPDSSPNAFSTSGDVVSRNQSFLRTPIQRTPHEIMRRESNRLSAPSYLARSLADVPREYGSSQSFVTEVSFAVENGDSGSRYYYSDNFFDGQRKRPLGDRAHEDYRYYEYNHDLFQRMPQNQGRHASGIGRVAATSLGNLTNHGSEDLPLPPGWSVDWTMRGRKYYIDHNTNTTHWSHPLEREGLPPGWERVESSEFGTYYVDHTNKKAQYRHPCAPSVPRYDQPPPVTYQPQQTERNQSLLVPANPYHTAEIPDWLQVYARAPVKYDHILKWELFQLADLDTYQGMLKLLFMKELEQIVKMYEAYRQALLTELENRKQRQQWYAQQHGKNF
UniProt Q9H9L4: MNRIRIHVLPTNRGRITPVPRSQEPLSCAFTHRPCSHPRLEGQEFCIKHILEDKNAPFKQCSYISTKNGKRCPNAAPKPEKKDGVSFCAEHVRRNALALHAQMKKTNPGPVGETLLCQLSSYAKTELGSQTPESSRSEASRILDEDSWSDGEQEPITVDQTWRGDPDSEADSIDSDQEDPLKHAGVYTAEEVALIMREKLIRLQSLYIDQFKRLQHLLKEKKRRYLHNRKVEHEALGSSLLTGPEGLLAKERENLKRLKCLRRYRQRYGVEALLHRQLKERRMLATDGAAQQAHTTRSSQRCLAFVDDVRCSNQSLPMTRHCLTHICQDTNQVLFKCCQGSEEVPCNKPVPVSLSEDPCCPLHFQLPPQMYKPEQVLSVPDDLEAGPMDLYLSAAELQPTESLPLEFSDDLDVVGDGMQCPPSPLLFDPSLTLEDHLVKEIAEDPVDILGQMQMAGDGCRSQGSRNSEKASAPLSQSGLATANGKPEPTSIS
UniProt Q9HBL8: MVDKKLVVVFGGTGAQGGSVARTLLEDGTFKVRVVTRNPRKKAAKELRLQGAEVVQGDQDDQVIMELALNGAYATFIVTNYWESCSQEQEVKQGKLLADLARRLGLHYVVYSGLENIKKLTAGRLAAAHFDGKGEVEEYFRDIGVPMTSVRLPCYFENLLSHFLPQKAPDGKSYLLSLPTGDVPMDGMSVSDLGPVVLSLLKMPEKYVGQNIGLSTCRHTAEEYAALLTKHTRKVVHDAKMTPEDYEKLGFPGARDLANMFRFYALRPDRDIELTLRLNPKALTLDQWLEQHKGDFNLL
UniProt Q9HCC0: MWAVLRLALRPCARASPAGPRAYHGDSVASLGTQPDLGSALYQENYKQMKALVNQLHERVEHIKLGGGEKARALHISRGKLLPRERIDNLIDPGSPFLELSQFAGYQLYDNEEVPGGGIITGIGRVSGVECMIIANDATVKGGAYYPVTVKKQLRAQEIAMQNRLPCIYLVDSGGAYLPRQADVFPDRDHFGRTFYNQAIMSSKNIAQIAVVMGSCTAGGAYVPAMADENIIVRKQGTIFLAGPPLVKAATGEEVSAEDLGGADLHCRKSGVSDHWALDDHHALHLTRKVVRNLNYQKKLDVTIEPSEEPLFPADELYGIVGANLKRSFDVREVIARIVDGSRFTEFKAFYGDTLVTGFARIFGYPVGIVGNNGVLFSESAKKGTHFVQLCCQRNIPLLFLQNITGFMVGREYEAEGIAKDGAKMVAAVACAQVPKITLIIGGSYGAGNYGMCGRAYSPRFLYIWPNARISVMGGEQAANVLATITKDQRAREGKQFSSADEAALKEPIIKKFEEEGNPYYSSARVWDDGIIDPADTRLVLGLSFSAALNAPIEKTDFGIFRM
UniProt Q9H6S0: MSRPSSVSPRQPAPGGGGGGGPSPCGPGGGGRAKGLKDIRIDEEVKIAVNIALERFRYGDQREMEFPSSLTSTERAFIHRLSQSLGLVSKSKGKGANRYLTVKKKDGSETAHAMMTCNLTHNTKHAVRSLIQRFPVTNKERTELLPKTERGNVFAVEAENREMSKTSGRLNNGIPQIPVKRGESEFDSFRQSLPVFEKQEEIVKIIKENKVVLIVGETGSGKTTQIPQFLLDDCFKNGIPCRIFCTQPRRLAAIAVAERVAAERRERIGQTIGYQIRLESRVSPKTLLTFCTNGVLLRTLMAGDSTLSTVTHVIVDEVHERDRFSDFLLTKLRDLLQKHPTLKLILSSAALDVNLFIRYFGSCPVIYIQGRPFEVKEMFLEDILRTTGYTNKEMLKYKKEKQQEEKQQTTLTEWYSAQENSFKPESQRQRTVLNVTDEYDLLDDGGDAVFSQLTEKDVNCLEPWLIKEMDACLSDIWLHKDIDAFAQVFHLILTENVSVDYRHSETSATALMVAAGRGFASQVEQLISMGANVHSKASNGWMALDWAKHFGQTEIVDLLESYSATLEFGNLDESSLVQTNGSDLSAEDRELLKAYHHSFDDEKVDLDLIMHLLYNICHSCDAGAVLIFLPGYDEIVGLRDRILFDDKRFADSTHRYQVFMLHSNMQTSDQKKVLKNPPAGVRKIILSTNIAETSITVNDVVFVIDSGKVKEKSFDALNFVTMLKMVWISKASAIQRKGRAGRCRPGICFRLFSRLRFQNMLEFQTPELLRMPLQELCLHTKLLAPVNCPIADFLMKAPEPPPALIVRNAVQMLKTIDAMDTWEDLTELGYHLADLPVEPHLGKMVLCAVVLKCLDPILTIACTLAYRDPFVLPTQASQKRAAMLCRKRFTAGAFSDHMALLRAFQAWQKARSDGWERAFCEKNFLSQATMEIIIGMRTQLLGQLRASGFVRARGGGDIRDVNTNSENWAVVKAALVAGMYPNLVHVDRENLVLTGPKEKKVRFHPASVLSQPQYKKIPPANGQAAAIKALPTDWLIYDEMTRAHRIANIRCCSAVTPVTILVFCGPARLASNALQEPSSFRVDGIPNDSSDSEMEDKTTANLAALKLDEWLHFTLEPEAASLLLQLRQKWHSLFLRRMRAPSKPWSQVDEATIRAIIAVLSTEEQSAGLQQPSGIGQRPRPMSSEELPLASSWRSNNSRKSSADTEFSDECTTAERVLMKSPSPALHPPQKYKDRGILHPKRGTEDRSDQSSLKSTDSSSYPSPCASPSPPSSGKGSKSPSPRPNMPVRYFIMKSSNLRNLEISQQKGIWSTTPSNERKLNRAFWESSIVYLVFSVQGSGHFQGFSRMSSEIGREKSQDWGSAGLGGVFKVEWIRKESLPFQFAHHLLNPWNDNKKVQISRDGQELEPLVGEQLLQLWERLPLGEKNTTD
UniProt Q9NPI6: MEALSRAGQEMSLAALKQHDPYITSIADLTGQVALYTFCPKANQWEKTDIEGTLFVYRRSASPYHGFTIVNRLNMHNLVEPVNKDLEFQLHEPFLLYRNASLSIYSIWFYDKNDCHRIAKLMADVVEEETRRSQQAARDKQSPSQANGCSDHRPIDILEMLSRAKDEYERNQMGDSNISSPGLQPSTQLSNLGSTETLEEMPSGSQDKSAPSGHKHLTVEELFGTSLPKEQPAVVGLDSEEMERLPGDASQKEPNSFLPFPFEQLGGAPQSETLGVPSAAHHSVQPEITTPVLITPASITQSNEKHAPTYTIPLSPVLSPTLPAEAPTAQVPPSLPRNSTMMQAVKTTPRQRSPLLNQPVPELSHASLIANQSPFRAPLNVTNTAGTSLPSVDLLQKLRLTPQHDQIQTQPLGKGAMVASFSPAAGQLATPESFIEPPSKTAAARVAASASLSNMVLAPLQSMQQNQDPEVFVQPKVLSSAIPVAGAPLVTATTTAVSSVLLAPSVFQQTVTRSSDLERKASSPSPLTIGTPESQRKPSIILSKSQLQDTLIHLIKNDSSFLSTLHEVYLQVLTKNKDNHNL
UniProt Q9HCN8: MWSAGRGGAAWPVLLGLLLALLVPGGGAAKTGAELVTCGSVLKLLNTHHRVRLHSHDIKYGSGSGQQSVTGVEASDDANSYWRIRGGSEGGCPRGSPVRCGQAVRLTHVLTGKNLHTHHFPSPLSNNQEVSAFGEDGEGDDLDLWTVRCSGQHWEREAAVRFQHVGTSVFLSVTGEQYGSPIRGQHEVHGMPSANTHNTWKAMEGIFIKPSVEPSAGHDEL

Each target was assayed with CN[C@@H]1C[C@H]2O[C@@](C)([C@@H]1OC)n1c3ccccc3c3c4c(c5c6ccccc6n2c5c31)C(=O)NC4 [staurosporine] (assay: log2 fold change of tryptic peptide abundance, ligand vs vehicle (limited proteolysis) (log2 ratio); higher = more trypsin-susceptible (destabilized)). Details: ligand concentration: 20 uM; sample: K562 cleared lysate; digestion: 4 min, 22 C (HT-PELSA RT4min, Orbitrap Astral).

Target | log2 fold change
UBE2Z (peptide sequence: TAPQCLLR, peptide start residue: 96) (UniProt Q9H832) | 0.181
RSAD1 (peptide sequence: LAEFGAAGVNR, peptide start residue: 142) (UniProt Q9HA92) | -0.531
SAV1 (peptide sequence: VESSEFGTYYVDHTNKK, peptide start residue: 243) (UniProt Q9H4B6) | -0.472
KANSL2 (peptide sequence: NALALHAQMK, peptide start residue: 95) (UniProt Q9H9L4) | 0.208
NMRAL1 (peptide sequence: FYALRPDRDIELTLR, peptide start residue: 263) (UniProt Q9HBL8) | 0.426
MCCC2 (peptide sequence: LPCIYLVDSGGAYLPR, peptide start residue: 165) (UniProt Q9HCC0) | -0.18
GORASP2 (peptide sequence: ANVEKPVK, peptide start residue: 61) (UniProt Q9H8Y8) | 0.536
YTHDC2 (peptide sequence: GNVFAVEAENR, peptide start residue: 151) (UniProt Q9H6S0) | -0.175
DCP1A (peptide sequence: NASLSIYSIWFYDKNDCHR, peptide start residue: 99) (UniProt Q9NPI6) | 0.596
SDF2L1 (peptide sequence: LTHVLTGK, peptide start residue: 106) (UniProt Q9HCN8) | 0.25

Reformatted: entries from further up.
Target	log2 fold change
UBE2Z (peptide sequence: TAPQCLLR, peptide start residue: 96) (UniProt Q9H832)	0.181
MCCC2 (peptide sequence: LPCIYLVDSGGAYLPR, peptide start residue: 165) (UniProt Q9HCC0)	-0.18
